Data published in paper doi:10.1101/2023.09.29.560101.
These are yes or no findings as the source states them, for the method shown. Binding seen in cells or lysates may run through a third protein. Some entries that bind do so weakly or less than the wild type.

Chains of the proteins cited; added tags and fusions are not shown. Residues count along the entry.
UniProt Q8K0D5, residues 38-751: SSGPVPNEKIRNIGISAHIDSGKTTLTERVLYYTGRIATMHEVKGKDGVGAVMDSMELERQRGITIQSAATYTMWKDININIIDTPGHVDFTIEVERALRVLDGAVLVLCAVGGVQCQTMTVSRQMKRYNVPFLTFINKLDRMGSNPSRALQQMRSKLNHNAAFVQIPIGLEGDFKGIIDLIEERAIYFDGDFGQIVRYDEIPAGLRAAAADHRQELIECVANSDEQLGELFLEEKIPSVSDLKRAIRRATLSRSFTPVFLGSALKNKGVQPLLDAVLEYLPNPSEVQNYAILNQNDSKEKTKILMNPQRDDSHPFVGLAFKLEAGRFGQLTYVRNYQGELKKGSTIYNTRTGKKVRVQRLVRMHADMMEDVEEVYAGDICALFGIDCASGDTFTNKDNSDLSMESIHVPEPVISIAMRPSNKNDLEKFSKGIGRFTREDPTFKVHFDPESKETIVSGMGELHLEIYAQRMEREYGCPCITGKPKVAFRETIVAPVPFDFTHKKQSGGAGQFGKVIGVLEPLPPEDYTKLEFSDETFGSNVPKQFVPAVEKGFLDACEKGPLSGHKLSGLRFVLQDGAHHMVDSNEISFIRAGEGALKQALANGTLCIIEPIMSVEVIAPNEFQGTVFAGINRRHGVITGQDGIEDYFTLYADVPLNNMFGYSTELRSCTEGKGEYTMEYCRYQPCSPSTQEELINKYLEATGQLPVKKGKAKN
UniProt Q9JHS4, residues 57-634: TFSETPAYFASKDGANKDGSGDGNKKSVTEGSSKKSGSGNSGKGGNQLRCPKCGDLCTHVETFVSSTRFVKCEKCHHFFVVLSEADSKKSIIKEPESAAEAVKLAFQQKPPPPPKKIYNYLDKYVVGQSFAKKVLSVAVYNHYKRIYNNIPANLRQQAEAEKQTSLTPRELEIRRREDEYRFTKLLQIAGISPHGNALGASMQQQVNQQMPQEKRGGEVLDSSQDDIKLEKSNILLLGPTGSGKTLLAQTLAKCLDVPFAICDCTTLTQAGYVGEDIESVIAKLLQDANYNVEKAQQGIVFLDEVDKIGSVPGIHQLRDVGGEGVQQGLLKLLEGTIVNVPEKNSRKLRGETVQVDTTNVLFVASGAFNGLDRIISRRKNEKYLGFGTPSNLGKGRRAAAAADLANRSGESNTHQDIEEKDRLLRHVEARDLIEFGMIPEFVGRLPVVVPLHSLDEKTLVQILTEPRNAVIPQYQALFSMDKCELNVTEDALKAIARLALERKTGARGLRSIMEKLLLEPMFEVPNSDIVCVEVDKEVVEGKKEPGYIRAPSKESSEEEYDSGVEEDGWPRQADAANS

Molecular target: GFM1, translation elongation factor G 1, mitochondrial (mouse, endogenous) (mouse (endogenous in mouse liver)) (UniProt Q8K0D5)
Assay: co-IP

Substance: CLPX, specificity component of Clp protease complex, AAA+ ATPase (mouse, endogenous) (from UniProt Q9JHS4 57-634)
- binding: binds
